These are yes or no findings as the source states them, for the method shown. Some results given as binding are weak or reduced against the parent protein; the word gives no strength.
B1: mucin subtype 5AC-specific mouse antibody (antibody, V domains shown)
VH: EVKLVESGGVLVKSGGSLKLSCAVSGFTFSNYGMSWVRQTPEKRLEWVATISNSGRYTYFPDSVKGRFAISRDNAKNNLYLQMSSLRSADTALYYCTRHLDYANYDAMDYWGQGTSVTVSS
VL: DIVLTQSPASLAVSLGQRATISCRASKSVTTSDFSYMHWYQQKPGQPPKLLLYLASNLESGVPDRFSGSGSGTDFTLNIHPVEEEDAATYYCQHSREFPWTFGGGTKLEIK
B2: humanized antibody 1 (antibody, V domains shown)
VH: QVQLVESGGGVVQPGRSLRLSCSSSGFIFSNYGMSWVRQAPEKRLEWVATISNSGRYTYFPDSVKGRFTISRDNSKNTLFLQMDSLRPEDTGVYFCARHLDYANYDAMDYWGQGTPVTVSS
VL: DIVMTQSPNSLAVSLGERATINCRASKSVTTSDFSYMHWYQQKPGQPPKLLIYLASNLESGVPDRFSGSGSGTDFTLTISSLQAEDVAVYYCQHSREFPWTFGQGTKLEIK
B3: humanized antibody 10 (antibody, V domains shown)
VH: EVQLLESGGGLVQPGGSLRLSCAASGFTFSNYGMSWVRQAPGKGLEWVSTISNSGRYTYFPDSVKGRFTISRDNSKNTLYLQMNSLRAEDTAVYYCAKHLDYANYDAMDYWGQGTLVTVSS
VL: DIVMTQTPLSLSVTPGQPASISCRASKSVTTSDFSYMHWYLQKPGQPPQLLIYLASNLESGVPDRFSGSGSGTDFTLKISRVEAEDVGVYYCQHSREFPWTFGQGTKVEIK
B4: humanized antibody 2 (antibody, V domains shown)
VH: EVQLLESGGGLVQPGGSLRLSCAASGFTFSNYGMSWVRQAPGKGLEWVSTISNSGRYTYFPDSVKGRFTISRDNSKNTLYLQMNSLRAEDTAVYYCAKHLDYANYDAMDYWGQGTLVTVSS
VL: DIVMTQTPLSSPVTLGQPASISCRASKSVTTSDFSYMHWLQQRPGQPPRLLIYLASNLESGVPDRFSGSGAGTDFTLKISRVEAEDVGVYYCQHSREFPWTFGQGTKVEIK
B5: humanized antibody 3 (antibody, V domains shown)
VH: EVQLLESGGGLVQPGGSLRLSCAASGFTFSNYGMSWVRQAPGKGLEWVSTISNSGRYTYFPDSVKGRFTISRDNSKNTLYLQMNSLRAEDTAVYYCAKHLDYANYDAMDYWGQGTLVTVSS
VL: DIQMTQSPSTLAVSLGDRVTITCRASKSVTTSDFSYMHWYQQKPGKAPKLLMYLASNLESGVPSRFIGSGSGTEFTLTISSLQPDDFATYYCQHSREFPWTFGQGTKVEVK
B6: humanized antibody 4 (antibody, V domains shown)
VH: EVQLLESGGGLVQPGGSLRLSCAASGFTFSNYGMSWVRQAPGKGLEWVSTISNSGRYTYFPDSVKGRFTISRDNSKNTLYLQMNSLRAEDTAVYYCAKHLDYANYDAMDYWGQGTLVTVSS
VL: DIQMTQSPSSLAVSLGDRVTITCRASKSVTTSDFSYMHWYQQKPGLAPKLLIYLASNLESGVPSRFSGSGSGTDFTFTISSLQPEDIATYYCQHSREFPWTFGQGTKVEVK
B7: humanized antibody 5 (antibody, V domains shown)
VH: EVQLLESGGGLVQPGGSLRLSCAASGFTFSNYGMSWVRQAPGKGLEWVSTISNSGRYTYFPDSVKGRFTISRDNSKNTLYLQMNSLRAEDTAVYYCAKHLDYANYDAMDYWGQGTLVTVSS
VL: DIQMTQSPSSLAVSLGDRVTITCRASKSVTTSDFSYMHWYQQTPGKAPKLLIYLASNLESGVPSRFSGSGSGTDYTFTISSLQPEDIATYYCQHSREFPWTFGQGTKLQIT
B8: humanized antibody 6 (antibody, V domains shown)
VH: EVQLVESGGGLVKPGGSLRLSCAASGFTFSNYGMSWVRQAPGKGLEWVSTISNSGRYTYFPDSVKGRFTISRDNAKNSLYLQMNSLRAEDTAVYYCARHLDYANYDAMDYWGQGTLVTVSS
VL: DIVMTQTPLSSPVTLGQPASISCRASKSVTTSDFSYMHWLQQRPGQPPRLLIYLASNLESGVPDRFSGSGAGTDFTLKISRVEAEDVGVYYCQHSREFPWTFGQGTKVEIK
B9: humanized antibody 7 (antibody, V domains shown)
VH: EVQLVESGGGVVRPGGSLRLSCAASGFTFDNYGMSWVRQAPGKGLEWVSTISNSGRYTYFPDSVKGRFTISRDNAKNSLYLQMNSLRAEDTALYHCARHLDYANYDAMDYWGQGTLVTVSS
VL: DIVMTQTPLSSPVTLGQPASISCRASKSVTTSDFSYMHWLQQRPGQPPRLLIYLASNLESGVPDRFSGSGAGTDFTLKISRVEAEDVGVYYCQHSREFPWTFGQGTKVEIK
B10: humanized antibody 9 (antibody, V domains shown)
VH: QVQLQESGPGLVRPSQSLKLTCTVSGSTFSNYGMSWVRQTPEKRLEWIGTISNSGRYTYFPDSVKGRVTMLVDTSKNQFSLQMSSVTAADTAVYYCARHLDYANYDAMDYWGQGSLVTVSS
VL: DIVMTQTPLSSPVTLGQPASISCRASKSVTTSDFSYMHWLQQRPGQPPRLLIYLASNLESGVPDRFSGSGAGTDFTLKISRVEAEDVGVYYCQHSREFPWTFGQGTKVEIK

Protein sequences, listed by entry. Tags and fused reporters are not part of them. Residues count along the entry.
UniProt P98088, residues 28-5654: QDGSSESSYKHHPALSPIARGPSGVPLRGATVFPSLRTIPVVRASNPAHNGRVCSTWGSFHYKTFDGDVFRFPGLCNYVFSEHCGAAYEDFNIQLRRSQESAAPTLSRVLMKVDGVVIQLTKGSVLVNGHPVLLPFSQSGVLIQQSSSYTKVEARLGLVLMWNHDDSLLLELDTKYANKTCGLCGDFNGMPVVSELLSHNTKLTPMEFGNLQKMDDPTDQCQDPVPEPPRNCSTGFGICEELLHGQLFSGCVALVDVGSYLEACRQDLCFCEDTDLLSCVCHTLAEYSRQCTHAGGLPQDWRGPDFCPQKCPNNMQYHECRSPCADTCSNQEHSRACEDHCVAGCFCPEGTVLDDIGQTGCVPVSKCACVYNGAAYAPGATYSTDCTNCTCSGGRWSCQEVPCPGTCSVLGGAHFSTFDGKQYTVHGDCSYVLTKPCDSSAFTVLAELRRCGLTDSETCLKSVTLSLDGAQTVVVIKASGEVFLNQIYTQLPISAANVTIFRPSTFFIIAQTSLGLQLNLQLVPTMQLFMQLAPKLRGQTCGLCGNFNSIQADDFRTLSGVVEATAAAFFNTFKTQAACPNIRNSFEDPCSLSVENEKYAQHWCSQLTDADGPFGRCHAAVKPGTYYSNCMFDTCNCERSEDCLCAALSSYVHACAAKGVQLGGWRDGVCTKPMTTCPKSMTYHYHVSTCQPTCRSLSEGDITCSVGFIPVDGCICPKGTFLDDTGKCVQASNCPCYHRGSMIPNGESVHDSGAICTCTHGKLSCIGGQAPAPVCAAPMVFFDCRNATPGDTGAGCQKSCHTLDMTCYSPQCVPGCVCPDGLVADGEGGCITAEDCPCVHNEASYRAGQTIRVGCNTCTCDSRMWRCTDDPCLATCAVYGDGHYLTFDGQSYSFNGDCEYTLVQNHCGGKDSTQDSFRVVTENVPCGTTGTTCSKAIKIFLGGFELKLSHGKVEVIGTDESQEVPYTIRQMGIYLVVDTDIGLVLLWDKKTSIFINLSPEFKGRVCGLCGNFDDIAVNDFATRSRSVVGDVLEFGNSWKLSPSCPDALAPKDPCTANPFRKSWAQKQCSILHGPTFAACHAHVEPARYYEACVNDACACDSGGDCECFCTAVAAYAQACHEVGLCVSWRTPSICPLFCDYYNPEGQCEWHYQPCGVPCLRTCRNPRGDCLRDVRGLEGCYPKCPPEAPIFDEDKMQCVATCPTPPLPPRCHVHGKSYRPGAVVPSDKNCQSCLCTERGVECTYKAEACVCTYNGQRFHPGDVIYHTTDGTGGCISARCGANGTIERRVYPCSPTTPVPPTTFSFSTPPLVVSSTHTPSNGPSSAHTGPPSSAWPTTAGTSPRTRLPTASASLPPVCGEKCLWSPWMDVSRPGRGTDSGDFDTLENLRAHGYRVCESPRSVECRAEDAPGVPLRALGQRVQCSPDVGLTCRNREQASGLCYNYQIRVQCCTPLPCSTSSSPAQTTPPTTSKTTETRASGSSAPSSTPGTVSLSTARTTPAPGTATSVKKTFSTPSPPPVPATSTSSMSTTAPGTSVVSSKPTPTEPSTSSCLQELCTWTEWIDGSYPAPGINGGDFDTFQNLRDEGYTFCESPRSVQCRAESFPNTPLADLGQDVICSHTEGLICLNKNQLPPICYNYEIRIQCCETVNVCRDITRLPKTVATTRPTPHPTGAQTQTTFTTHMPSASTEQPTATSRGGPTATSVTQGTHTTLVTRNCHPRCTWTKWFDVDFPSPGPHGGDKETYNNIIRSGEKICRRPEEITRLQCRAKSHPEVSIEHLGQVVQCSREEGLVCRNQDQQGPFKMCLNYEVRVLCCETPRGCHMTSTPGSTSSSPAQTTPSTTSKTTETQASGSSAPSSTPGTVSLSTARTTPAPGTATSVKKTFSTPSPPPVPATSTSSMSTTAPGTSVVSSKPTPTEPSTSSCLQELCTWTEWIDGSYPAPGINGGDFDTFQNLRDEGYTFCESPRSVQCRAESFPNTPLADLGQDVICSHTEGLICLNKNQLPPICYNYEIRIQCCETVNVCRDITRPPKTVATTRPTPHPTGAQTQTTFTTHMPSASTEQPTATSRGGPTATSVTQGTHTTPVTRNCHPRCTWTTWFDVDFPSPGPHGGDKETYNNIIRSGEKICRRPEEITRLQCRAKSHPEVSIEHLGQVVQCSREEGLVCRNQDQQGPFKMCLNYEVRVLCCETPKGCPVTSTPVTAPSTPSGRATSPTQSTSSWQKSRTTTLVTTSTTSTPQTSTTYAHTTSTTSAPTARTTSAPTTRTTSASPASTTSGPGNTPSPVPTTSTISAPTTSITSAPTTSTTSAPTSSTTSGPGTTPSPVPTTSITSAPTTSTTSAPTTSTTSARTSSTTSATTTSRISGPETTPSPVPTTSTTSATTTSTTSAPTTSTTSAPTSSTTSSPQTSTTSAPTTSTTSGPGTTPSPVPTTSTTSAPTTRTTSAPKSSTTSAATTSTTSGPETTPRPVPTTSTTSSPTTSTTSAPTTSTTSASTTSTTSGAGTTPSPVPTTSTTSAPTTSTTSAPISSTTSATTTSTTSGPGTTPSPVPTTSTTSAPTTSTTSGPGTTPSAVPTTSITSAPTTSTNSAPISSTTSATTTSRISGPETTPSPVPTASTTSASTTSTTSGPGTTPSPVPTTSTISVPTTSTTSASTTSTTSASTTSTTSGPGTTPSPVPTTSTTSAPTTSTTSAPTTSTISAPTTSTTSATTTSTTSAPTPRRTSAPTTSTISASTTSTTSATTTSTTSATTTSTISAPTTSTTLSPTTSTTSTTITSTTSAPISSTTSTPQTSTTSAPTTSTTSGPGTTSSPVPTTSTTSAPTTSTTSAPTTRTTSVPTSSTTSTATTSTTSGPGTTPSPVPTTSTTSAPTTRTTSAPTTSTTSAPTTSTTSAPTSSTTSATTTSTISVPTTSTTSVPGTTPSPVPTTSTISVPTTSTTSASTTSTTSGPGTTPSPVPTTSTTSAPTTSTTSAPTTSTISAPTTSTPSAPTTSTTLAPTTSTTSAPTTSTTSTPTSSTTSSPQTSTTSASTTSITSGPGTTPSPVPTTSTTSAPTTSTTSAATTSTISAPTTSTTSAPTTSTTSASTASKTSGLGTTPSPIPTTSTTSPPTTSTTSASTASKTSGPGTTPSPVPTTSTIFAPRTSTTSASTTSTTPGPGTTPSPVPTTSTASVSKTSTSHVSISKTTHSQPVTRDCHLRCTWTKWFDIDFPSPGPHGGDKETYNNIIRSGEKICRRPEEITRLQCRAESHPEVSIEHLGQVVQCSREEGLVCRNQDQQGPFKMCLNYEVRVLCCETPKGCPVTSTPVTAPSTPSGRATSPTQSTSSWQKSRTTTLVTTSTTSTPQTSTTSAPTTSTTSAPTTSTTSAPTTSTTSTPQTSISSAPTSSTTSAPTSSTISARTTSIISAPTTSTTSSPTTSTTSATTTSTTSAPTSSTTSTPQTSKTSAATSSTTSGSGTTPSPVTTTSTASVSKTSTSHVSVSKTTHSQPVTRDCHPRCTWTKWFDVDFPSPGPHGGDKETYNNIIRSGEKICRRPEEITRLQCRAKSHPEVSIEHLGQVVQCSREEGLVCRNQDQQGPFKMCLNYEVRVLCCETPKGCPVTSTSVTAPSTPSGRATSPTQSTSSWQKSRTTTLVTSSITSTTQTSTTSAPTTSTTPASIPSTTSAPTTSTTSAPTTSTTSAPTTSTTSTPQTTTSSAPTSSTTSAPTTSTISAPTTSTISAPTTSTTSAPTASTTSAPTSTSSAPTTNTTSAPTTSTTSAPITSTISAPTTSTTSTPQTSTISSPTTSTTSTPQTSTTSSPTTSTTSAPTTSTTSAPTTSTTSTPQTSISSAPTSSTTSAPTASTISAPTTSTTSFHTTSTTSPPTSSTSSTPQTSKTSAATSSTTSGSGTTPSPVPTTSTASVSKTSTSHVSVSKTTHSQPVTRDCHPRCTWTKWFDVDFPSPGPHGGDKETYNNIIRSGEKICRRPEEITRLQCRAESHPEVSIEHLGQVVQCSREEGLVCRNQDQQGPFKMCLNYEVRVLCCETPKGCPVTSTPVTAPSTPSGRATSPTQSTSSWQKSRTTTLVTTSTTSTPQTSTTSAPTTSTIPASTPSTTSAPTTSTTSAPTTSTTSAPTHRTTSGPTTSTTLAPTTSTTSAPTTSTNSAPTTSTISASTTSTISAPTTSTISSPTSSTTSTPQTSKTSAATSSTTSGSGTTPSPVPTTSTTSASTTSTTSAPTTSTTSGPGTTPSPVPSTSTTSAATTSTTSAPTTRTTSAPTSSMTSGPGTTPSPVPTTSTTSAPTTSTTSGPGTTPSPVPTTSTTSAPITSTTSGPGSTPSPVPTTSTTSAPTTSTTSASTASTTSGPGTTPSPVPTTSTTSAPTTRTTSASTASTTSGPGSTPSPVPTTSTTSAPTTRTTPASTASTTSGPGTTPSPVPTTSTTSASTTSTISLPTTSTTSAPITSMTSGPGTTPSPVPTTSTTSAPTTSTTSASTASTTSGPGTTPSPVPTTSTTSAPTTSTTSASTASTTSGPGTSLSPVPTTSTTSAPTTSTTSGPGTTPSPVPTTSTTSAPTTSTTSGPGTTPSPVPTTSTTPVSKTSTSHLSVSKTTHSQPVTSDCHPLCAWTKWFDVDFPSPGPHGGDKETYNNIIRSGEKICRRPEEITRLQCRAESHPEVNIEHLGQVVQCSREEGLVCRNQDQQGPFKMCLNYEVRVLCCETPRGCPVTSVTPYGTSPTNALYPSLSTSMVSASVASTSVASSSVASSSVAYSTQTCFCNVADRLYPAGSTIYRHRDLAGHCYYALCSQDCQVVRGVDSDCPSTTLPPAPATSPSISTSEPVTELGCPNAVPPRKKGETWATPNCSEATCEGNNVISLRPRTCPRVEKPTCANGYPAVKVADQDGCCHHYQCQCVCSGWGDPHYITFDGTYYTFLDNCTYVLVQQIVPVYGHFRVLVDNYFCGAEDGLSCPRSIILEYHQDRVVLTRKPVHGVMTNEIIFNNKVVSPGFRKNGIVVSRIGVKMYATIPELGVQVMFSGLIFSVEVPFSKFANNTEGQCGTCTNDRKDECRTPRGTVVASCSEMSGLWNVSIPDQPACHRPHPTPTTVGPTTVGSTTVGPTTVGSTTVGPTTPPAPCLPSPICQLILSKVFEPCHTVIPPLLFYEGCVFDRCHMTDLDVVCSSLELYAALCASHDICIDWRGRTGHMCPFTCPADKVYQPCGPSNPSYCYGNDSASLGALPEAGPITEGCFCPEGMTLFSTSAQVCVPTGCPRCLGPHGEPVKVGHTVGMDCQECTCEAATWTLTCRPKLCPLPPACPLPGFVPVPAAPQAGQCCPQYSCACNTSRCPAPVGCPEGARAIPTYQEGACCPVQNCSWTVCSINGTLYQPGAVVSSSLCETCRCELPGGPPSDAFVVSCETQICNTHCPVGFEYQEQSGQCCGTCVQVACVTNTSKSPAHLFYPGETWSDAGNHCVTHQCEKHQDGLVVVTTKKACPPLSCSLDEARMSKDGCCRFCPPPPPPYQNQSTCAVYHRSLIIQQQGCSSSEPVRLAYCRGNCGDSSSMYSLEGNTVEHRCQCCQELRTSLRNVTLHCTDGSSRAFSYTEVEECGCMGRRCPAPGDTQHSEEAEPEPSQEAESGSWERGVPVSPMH

Molecular target: mucin subtype 5AC expressed on BxPC3 cells (human) (UniProt P98088)
Experiment: flow cytometry on BxPC3 cells expressing mucin subtype 5AC, 20 ug/mL antibody (reference antibody)

binding, binds:
B1

Molecular target: mucin subtype 5AC expressed on BxPC3 cells (human) (UniProt P98088)
Experiment: flow cytometry on BxPC3 cells expressing mucin subtype 5AC, 20 ug/mL antibody

binding, binds:
B2, B3, B4, B5, B6, B7, B8, B9, B10
